Assay results: patent US7943600B2, “Antimicrobial combination therapy” (priority 2004, dated 2011)

Experiments:
[1] = tested on: MG1655/F′Tn10; test: DNA platinum adduct levels by atomic absorption spectrometry; format: cell-based, E. coli; details: highest cisplatin dose
[2] = tested on: MG1655/F′Tn10; test: Total cellular platinum by atomic absorption spectrometry; format: cell-based, E. coli; details: highest cisplatin dose

## N.N.[Cl][Pt][Cl] [cisplatin, cis-diammine-dichloro-platinum(II)]
[1]; co-treatment with tetracycline
  levels of DNA damage (platinum content in DNA): small further increase in levels of DNA damage
[1]; grown with tetracycline, vs MG1655
  cisplatin DNA damage (platinum content in DNA): accumulated more DNA damage than MG1655 cells
[2]; co-treatment with tetracycline
  total cellular levels of cisplatin: small increase in total cellular levels of cisplatin
[2]; grown in tetracycline prior to cisplatin treatment, vs MG1655
  platinum levels (total cellular): the same
